Measurements as given in PubChem BioAssay AID485314 (National Center for Advancing Translational Sciences (NCATS), 2010).
Screen size: about 340,000 compounds; about 4,500 (1.3%) were called active. This list was built around the results that the source calls inconclusive (neither active nor inactive); the mix of calls is not that of the screen. The call rests on the fitted dose curve; in most records, active means well fitted inhibition curve with a large enough effect; inconclusive means small, poorly fitted or top-dose-only effect, or another doubt; inactive means no such curve, though single readings can be large or run the other way. Where the call is inconclusive, the potency comes from a doubtful curve fit.
On the % scale 0 is the no-effect control and ±100 the full control effect; potency means the concentration at half of the fitted maximal effect.

What follows are molecules tested against DNA polymerase beta (Homo sapiens) (UniProt P06746) (assay: qHTS Assay for Inhibitors of DNA Polymerase Beta). Conditions: Pol beta primer extension/strand displacement, fluorescence kinetic; activity change, negative = inhibition: at 114 µM (top of the series).
How it was run: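 Enzyme-only controls used 10 nM Pol beta; buffer lacking enzyme served as negative control. Compound preincubated 15 min, then 50 nM substrate added; 0 and 10 min reads at room temperature.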
`N#C/C(=C\c1cc(O)c(O)c(O)c1)C(N)=O` was tested, and the Potency was inconclusive: 31.6 µM [inhibitor, partial curve, poor fit].
`Cc1nc(NC(=O)c2cccc(Cl)c2)sc1C(=O)N1CCCCC1` was tested, and the Potency was “inactive”.
With `Cn1c(=O)[nH]c(=O)c2c1nc(CN(Cc1ccccc1)Cc1ccccc1)n2CCN1CCOCC1` the Potency was inconclusive: 5.01 µM [inhibitor, full curve, poor fit].
In the case of `CCC(=O)OCc1cnc(C)c2oc(=O)c(C(=O)Nc3ccccc3C(F)(F)F)cc12`, the Potency was “inactive”.
With `CC/C(=N\O)c1c(O)c2c(n(-c3ccccc3)c1=O)CCCC2` the Potency was inconclusive: 28.2 µM [inhibitor, single point].
`COc1cc(NC(=O)COc2ccc(-n3cnnn3)cc2)c(OC)cc1Cl` was tested, and the Potency was “inactive”.
In the case of `Cc1cccc(-c2nnc3sc(-c4ccccc4C)nn23)c1`, the Potency was inconclusive: 89.1 µM [inhibitor, single point].
For `CCn1c(=O)n(CC)c2cc(N3CCCC3)c(NC(=O)c3ccccc3OC)cc21`, the activity change, negative = inhibition was inconclusive: -32% [inhibitor].
For `CC(=O)C(C(C)=O)C(NC(=O)c1cccnc1)(C(F)(F)F)C(F)(F)F`, the Potency was “inactive”.
`CC(=O)Nc1ccc(NS(=O)(=O)c2ccc(Cl)c(C(=O)O)c2)cc1` was tested, and the Potency was “inactive”.
`N#CC1=C(N)Oc2n[nH]c(-c3cccs3)c2C1c1ccco1` (centres undefined) was tested, and the Potency was “inactive”.
For `COCc1ccc(CN2CCCC(C(=O)Nc3ccc(-c4cccc(OC)c4)cc3)C2)o1` (centres undefined), the activity change, negative = inhibition was inconclusive: -30.7% [inhibitor].
In the case of `Cc1cnc(C(=O)OCC(=O)c2csc(N3CCCCC3)n2)cn1`, the Potency was active: 44.7 µM.
For `COCc1cc(=O)oc2cc(NC(=O)c3ccc(C(C)(C)C)cc3)ccc12`, the Potency was inconclusive: 79.4 µM [inhibitor, partial curve].
In the case of `COc1cccc(/C=N/Nc2nc3ccccc3n3cnnc23)c1O`, the Potency was inconclusive: 50.1 µM [inhibitor, partial curve].
In the case of `Cc1ccc(CN(C(=O)COc2ccc(C(C)C)cc2)C2CCS(=O)(=O)C2)o1` (centres undefined), the Potency was “inactive”.
In the case of `CCNC(=S)NC1CC2CCCC(C1)N2CCc1ccccc1` (centres undefined), the Potency was inconclusive: 89.1 µM [inhibitor, single point].
For `COc1ccc(CCNC2CCc3ccccc3C2)cc1` (centres undefined), the Potency was inconclusive: 89.1 µM [inhibitor, single point].
In the case of `O=C(c1ccc2[nH]c3c(c2c1)CCCC3)N1CCN(c2ccc(F)cc2)CC1`, the Potency was inconclusive: 89.1 µM [inhibitor, single point].
For `Cc1ccc(-c2cc(C(=O)Nc3ccc(S(=O)(=O)Nc4ncccn4)cc3)c3ccccc3n2)cc1`, the Potency was inconclusive: 89.1 µM [inhibitor, single point].
In the case of `COc1ccccc1NC(=O)c1oc2ccccc2c1NC(=O)c1ccccc1C(F)(F)F`, the Potency was “inactive”.
With `COc1cc(C(=O)NCCC(=O)N2CCCCC2)cc(OC)c1OC` the Potency was inconclusive: 1.12 µM [inhibitor, full curve, poor fit].
`COc1cc(/C=N/Nc2ccc(S(N)(=O)=O)cc2[N+](=O)[O-])cc(OC)c1O` was tested, and the Potency was inconclusive: 17.8 µM [inhibitor, full curve].
In the case of `COc1ccc(CNC(=O)CCCn2nc([N+](=O)[O-])cc2C)cc1`, the Potency was inconclusive: 0.126 µM [inhibitor, full curve, poor fit].
In the case of `COC(=O)c1ccc(NC(=O)CCc2nnc3ccc(NCc4ccco4)nn23)cc1`, the activity change, negative = inhibition was inconclusive: -128% [inhibitor].
For `CCCCNS(=O)(=O)c1ccc(NC(=O)C(Sc2ccccc2)c2ccccc2)cc1` (centres undefined), the Potency was inconclusive: 79.4 µM [inhibitor, single point].
With `Nc1cccc(S(=O)(=O)Nc2ccccc2)c1` the Potency was inconclusive: 1 µM [inhibitor, full curve, poor fit].
For `COc1ccc(N2CCN(S(=O)(=O)c3ccc(OC)c(-c4noc(C)n4)c3)CC2)cc1`, the Potency was inconclusive: 89.1 µM [inhibitor, single point].
`COc1cc(-c2nc3sc(C)c(C)c3c(=O)o2)cc(OC)c1OC` was tested, and the Potency was inconclusive: 31.6 µM [inhibitor, single point].
For `CCc1cccc(NC(=O)c2cnc(SC)nc2-c2ccccc2)c1`, the Potency was “inactive”.
`CC(=O)NN1C(=O)c2ccc(Oc3ccc4c(c3)C(=O)N(NC(C)=O)C4=O)cc2C1=O` was tested, and the Potency was active: 11.2 µM.
For `Cc1cc2nc(-c3ccc(OCc4ccc(F)cc4)cc3)cc(C(F)(F)F)n2n1`, the Potency was “inactive”.
With `Cc1ccc(Cl)cc1-n1ncc2c(NCCCn3ccnc3)ncnc21` the Potency was inconclusive: 39.8 µM [inhibitor, single point].
For `O=C(C1CCN(S(=O)(=O)Cc2ccccc2)CC1)N1CCN(c2ccc(F)cc2)CC1`, the Potency was “inactive”.
In the case of `CCn1c(N)c(Br)c(=O)[nH]c1=O`, the Potency was inconclusive: 1 µM [inhibitor, full curve, poor fit].
With `N=c1c(C(=O)NCc2ccco2)cc2c(=O)n3ccccc3nc2n1CCc1ccccc1` the Potency was active: 31.6 µM.
In the case of `COc1cc(NC(=O)c2cccs2)c(OC)cc1NC(=O)CCC(=O)Nc1ccc2ncccc2c1`, the Potency was inconclusive: 15.8 µM [inhibitor, partial curve, poor fit].
`Cc1ccc(C2CC(=O)N(Cc3ccccc3)c3c2c(C)nn3-c2nc(C)cc(C)n2)cc1` (centres undefined) was tested, and the Potency was “inactive”.
For `O=C1/C(=C/c2cccnc2)SC(=S)N1c1ccccc1`, the Potency was “inactive”.
In the case of `CCOC(=O)N1CCC(NC(=O)CCc2c(C)nc3c(c(C)nn3C(C)(C)C)c2C)CC1`, the Potency was inconclusive: 4.47 µM [inhibitor, single point].
For `COc1ccc(N2CC(C(=O)Nc3nnc(SCC(=O)NCc4ccco4)s3)CC2=O)cc1` (centres undefined), the activity change, negative = inhibition was inconclusive: -103% [inhibitor].
In the case of `O=C(COC(=O)c1ccc(O)cc1)Nc1ncc(Cl)cc1Cl`, the Potency was inconclusive: 79.4 µM [inhibitor, single point].
With `O=C1/C(=C\c2ccc(Br)o2)SC(=Nc2ccccc2)N1c1ccccc1` the Potency was active: 0.398 µM.
In the case of `C=CCNC(=S)NNC(=O)c1ccccc1`, the Potency was inconclusive: 89.1 µM [inhibitor, single point].
In the case of `CCCn1nc(NC(=O)c2cccs2)c2cc3cccc(C)c3nc21`, the Potency was inconclusive: 89.1 µM [inhibitor, single point].
For `Nc1ccc(-c2nc3c(ccc4ccccc43)[nH]2)cc1`, the Potency was inconclusive: 15.8 µM [inhibitor, partial curve].
`Cn1cc(CCNC(=O)c2ccc3nc(Cc4ccccc4F)oc3c2)cn1` was tested, and the Potency was inconclusive: 0.158 µM [inhibitor, full curve, poor fit].
With `CC(C)[C@H](NC(=O)c1ccccc1Cl)C(=O)OCc1cc(=O)n2cc(Br)ccc2n1` the Potency was inconclusive: 25.1 µM [inhibitor, full curve].
For `CC(C)(C)N/N=C/c1cc(Cl)cc([N+](=O)[O-])c1O`, the Potency was active: 35.5 µM.
For `O=C(O)Cc1sc(Nc2cccc3ccccc23)nc1-c1ccc(F)cc1`, the Potency was inconclusive: 70.8 µM [inhibitor, single point].
For `Cc1ccc(OCC(=O)Nc2cccc(-c3nnc(-c4ccccc4)o3)c2)c(C)c1`, the Potency was inconclusive: 4.47 µM [inhibitor, partial curve].
With `CCCN1C2CCCC1CC(NC(=S)Nc1cccc(C)c1C)C2` (centres undefined) the activity change, negative = inhibition was inconclusive: -38.9% [inhibitor].
`Cc1ncoc1C(=O)N1CCc2c([nH]c3ccccc23)C1c1ccccc1F` (centres undefined) was tested, and the Potency was inconclusive: 50.1 µM [inhibitor, partial curve].
`COc1ccc(/C=N/n2cnnc2)cc1Oc1nc(Cl)ncc1F` was tested, and the Potency was “inactive”.
For `CCN(CC)C(=O)Cn1c(SCCOc2ccc(Cl)cc2)nc2ccccc21`, the Potency was “inactive”.
In the case of `O=C(NC(=S)Nc1ccc(S(=O)(=O)N2CCCCC2)cc1)c1ccc(Cl)cc1`, the Potency was inconclusive: 100 µM [inhibitor, single point].
In the case of `CC1CC(=O)C2=C(C1)Nc1ccccc1N(C(=O)COc1ccccc1)C2c1ccco1` (centres undefined), the Potency was inconclusive: 89.1 µM [inhibitor, single point].
In the case of `Cc1ccc(C2CC(c3cccs3)=NN2C(=O)CSC2=NN3CCCC(=O)N=C3S2)cc1` (centres undefined), the Potency was inconclusive: 79.4 µM [inhibitor, single point].
For `COc1c(N2CCN(C(=S)NCc3ccccc3)C(C)C2)c(F)cc2c(=O)c(C(=O)O)cn(C3CC3)c12` (centres undefined), the Potency was active: 28.2 µM.
With `COc1ccccc1C(=O)NNC(=O)C(=O)Nc1ccc(C)c(Cl)c1` the Potency was inconclusive: 28.2 µM [inhibitor, single point].
With `CCN=C1S/C(=C\c2ccc(-c3cccc(C(=O)O)c3)o2)C(=O)N1CC` the Potency was active: 11.2 µM.
In the case of `Cc1cc(C)cc(NC(=O)CN(C)S(=O)(=O)c2ccc3[nH]c4c(c3c2)CCCC4)c1`, the Potency was inconclusive: 89.1 µM [inhibitor, single point].
`CN1CCN(c2ccc([N+](=O)[O-])cc2/C=N/NC(=O)c2ccc(F)cc2)CC1` was tested, and the Potency was inconclusive: 89.1 µM [inhibitor, single point].
In the case of `N#C/C(=C\c1ccc(-c2ccc(F)cc2F)o1)c1nc2ccccc2[nH]1`, the activity change, negative = inhibition was inconclusive: -75.4% [inhibitor].
With `COc1ccc(CNC(=O)COC(=O)c2ccc(OCc3c(C)noc3C)cc2)cc1OC` the Potency was active: 79.4 µM.
In the case of `CCN1C(=O)c2ccc(C(=O)O)cc2C1=O`, the Potency was inconclusive: 89.1 µM [inhibitor, single point].
With `CC(=O)c1ccc(-n2nnnc2SCC(=O)Nc2sc(C)c(C)c2C#N)cc1` the Potency was inconclusive: 25.1 µM [inhibitor, single point].
In the case of `CCOC(=O)N1CCN(S(=O)(=O)c2ccc(C(=O)Nc3sc4c(c3C#N)CC(C)(C)NC4(C)C)cc2)CC1`, the Potency was “inactive”.
For `CC(=O)c1c(C)[nH]c(C(=O)OCC(=O)Nc2ncc(Cl)c(C)c2Cl)c1C`, the Potency was inconclusive: 25.1 µM [inhibitor, partial curve, poor fit].
